Reference: patent US20030086952A1, “Highhly concentrated emulsions of organic compounds and methos of use” (priority 2001, published 2003)
Some of these results come from one statement about several compounds together. Some compounds share one range, which may span the group rather than tell each member.

Assay: Production of concentrated Yucca shidegera saponin emulsions in water (content reached)
Format: physicochemical
Details: stable saponin emulsion in water, two step mixing
Description: The concentrated emulsions readily re-disperse upon dilution in water to working concentrations of interest. The final concentration of saponin with respect to the organic molecule is easily obtainable at 1:50 or 1:100 w/w, or even less. The shelf life of the concentrated emulsions, either at room temperature (about 25° C.) or at refrigerator temperature (about 4° C.) is at least 1 year, although separation of an emulsion, once stably formed, has not been observed.
mulsions of some aqueous-recalcitrant compounds were prepared in water using Yucca shidegera extracts containing about 12-14% saponin, as an emulsifying agent. The saponin preparations were obtained from Danco Natural Products, Pine Valley, Calif., and are sold under the trade names Pure Yucca (about 7-14% saponin and Yucca Ultra (about 10-11% saponin). These preparations had been filtered by the supplier to remove any fibers which could interfere with the emulsification process. The components were combined as follows, using D-limonene as an example.
D-limonene (B. F. Goodrich/Kalama Chemicals, Kalama, Wash.) in the amount of 50 grams was added directly to a clean glass container. To this, 1.6 grams of yucca saponin was added. The glass container was covered tightly and agitated vigorously. A poor, partially opaque solution resulted. […]

cedryl acetate
concentration of organic compound in the emulsion: 80-90 % by weight
